Reference: article PMC5520850
These are yes or no findings as the source states them, for the method shown. Binding seen in cells or lysates may run through a third protein. Some entries that bind do so weakly or less than the wild type. One block for each binder: values may come before it.

Columns and labels:
eIF4G2 = target: T1, eIF4G2 (UniProt P78344); assay: co-IP; eIF4G2 and YTHDF3 with different epitope tags co-expressed in 293 cells; precipitation with anti-Flag or anti-HA antibodies (reciprocal)
T1 sequence: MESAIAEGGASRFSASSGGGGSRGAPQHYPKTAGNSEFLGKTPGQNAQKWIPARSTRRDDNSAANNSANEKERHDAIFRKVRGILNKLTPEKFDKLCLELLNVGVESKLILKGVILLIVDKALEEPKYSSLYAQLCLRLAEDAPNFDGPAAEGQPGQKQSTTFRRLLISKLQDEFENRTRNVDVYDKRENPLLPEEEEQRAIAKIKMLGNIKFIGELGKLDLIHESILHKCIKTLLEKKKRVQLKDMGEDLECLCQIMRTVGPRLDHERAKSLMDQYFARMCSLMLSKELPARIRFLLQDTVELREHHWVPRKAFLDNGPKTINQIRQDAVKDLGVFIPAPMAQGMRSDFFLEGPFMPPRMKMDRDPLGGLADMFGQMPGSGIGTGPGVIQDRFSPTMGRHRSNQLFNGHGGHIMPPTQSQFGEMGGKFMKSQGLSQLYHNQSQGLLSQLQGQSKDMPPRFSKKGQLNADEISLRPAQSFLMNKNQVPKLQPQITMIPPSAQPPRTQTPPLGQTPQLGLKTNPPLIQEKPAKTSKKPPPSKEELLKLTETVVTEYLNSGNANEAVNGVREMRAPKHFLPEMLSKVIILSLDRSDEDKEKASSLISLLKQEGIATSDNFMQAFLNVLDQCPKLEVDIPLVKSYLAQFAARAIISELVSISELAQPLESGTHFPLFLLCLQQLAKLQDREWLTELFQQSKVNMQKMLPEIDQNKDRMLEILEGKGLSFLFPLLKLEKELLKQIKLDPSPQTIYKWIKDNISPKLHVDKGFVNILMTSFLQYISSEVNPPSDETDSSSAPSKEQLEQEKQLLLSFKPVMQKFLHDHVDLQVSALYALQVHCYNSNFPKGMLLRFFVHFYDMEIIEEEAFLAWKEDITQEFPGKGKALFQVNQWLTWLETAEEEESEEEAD

YTHDF3 = target: T2, YTHDF3 (UniProt Q7Z739); assay: as above
T2 sequence: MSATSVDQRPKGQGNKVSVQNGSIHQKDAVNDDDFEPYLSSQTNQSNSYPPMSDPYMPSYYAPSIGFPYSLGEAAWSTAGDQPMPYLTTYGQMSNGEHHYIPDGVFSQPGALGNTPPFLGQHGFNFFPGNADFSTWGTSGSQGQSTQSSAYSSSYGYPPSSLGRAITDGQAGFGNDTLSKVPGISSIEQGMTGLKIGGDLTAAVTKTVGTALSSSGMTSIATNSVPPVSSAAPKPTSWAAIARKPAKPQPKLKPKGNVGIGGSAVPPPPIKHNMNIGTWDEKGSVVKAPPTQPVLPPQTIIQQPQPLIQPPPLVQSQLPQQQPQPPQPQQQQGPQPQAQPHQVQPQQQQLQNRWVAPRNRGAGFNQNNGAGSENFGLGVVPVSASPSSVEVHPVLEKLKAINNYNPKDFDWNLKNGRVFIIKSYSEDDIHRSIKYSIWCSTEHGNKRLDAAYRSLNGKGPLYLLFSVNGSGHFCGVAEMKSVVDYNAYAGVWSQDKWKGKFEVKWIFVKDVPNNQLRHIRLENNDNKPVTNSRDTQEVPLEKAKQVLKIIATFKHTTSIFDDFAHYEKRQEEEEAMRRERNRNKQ

binding (eIF4G2): binds
B1: YTHDF3 (protein, UniProt Q7Z739 1-585)
chain: T2 sequence

binding (YTHDF3): binds
B2: eIF4G2 (protein, UniProt P78344 1-907)
chain: T1 sequence
